Binding data for ten substances are collected here from article PMC8857493.

The test concerns the target T1, p47-FL, yeast two-hybrid fusion (UniProt Q9UNZ2).
T1 sequence: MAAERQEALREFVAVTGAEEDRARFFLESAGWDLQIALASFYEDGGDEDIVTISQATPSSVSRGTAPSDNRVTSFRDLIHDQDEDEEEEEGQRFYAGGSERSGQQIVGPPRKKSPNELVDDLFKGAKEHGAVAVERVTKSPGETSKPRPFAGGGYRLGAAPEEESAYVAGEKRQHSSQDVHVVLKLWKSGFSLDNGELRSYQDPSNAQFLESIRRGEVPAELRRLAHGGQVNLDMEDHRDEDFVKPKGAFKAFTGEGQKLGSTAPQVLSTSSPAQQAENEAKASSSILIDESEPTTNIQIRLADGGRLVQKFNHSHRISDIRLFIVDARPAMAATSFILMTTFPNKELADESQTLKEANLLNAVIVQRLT
The test can be described thus: two-hybrid; Matchmaker GAL4 Yeast Two-Hybrid 3 system; pGADT7- and pGBKT7-based plasmids (AD and DBD fusions) cotransformed into yeast AH109; growth on selective medium (Leu/Trp/Ade/His deficient); VCP variants against VCP cofactors.

Results are given in words; binding and its absence hold for the method and conditions named. Some binding calls cover weakened binding; strength is not graded here. Sequences can lack the tags named with a protein.

Regarding “VCP mutant m1 [D35A/V38A], yeast two-hybrid fusion (from UniProt P55072 1-806)”, the binding result was “binds”. The value for “VCP mutant m5b (Y143A), yeast two-hybrid fusion (from UniProt P55072 1-806)” was “binds”; that for “Valosin-containing protein/p97 (VCP), full-length, wild type, yeast two-hybrid fusion (from UniProt P55072 1-806)” was “binds”. The value for “VCP mutant m2b [R53A], yeast two-hybrid fusion (from UniProt P55072 1-806)” was “binds”; that for “VCP mutant m5 [E141A/Y143A], yeast two-hybrid fusion (from UniProt P55072 1-806)” was “binds”. As for “VCP mutant m5a (E141A), yeast two-hybrid fusion (from UniProt P55072 1-806)”, the binding entry is “binds”. The value for “VCP mutant m3 [I70A/L72A], yeast two-hybrid fusion (from UniProt P55072 1-806)” was “binds”; that for “VCP mutant m4+2b (R53A/V108A/K109A/Y110A), yeast two-hybrid fusion (from UniProt P55072 1-806)” was “binds”; that for “VCP mutant m2a [F52A], yeast two-hybrid fusion (from UniProt P55072 1-806)” was “binds”. On to “VCP mutant m4 [V108A/K109A/Y110A], yeast two-hybrid fusion (from UniProt P55072 1-806)”, for which the binding entry is given as “binds”.
